Results published in patent publication US20250367189A1, “2-BROMO-LYSERGIC ACID DI[…] SUBSTANCE ABUSE” (Ceruvia Lifesciences LLC, priority 2020, published 2025).

Tested on: male fosTRAP2×Ai14 mice
Assay: Two-bottle choice (water vs 20% ethanol) drinking after ethanol exposure
Type: in vivo
Conditions: planned contrast across follow-up; LSD 50 ug/kg or BOL-148 3.0 mg/kg IP
Excerpt: Twenty-five adult (12-30-week old), male fosTRAP2×Ai14 mice were bred in-house. Generation of the fosTRAP2 and FosTRAP lines were previously described (Guenthner, et al.). fosTRAP2 mice were crossed with Ai14 mice to obtain the mice used in this study. Mice were single-housed on a reverse light-dark cycle and given unlimited access to standard mouse chow and water. Animals were given a week to habituate to single housing, after which they were given free access to 2 bottles containing water and 20% ethanol for 24-hour periods beginning at the start of their dark cycle, 5 days per week (Monday-Friday) for 4 weeks (ethanol exposure). Amount of water and ethanol consumed (by volume and weight) were measured for each mouse across the final 5 days of the ethanol exposure period, and ethanol preference was counterbalanced across treatment group by the mean ethanol preference by weight (corrected for body weight) during this period.
Following 4 weeks of ethanol exposure, animals were administered one of 3 treatments via a single intraperitoneal injection 10 minutes prior to onset of the dark cycle/day one in a five-day cycle of alcohol exposure: saline, LSD 50 ug/kg, or BOL-148 3.0 mg/kg. […] Amount of water and ethanol consumed (by volume and weight) were measured daily at the end of the light cycle. […]

SMILES	total fluid consumption, mean difference Saline vs. treatment
CCN(CC)C(=O)[C@@H]1C=C2c3cccc4[nH]cc(c34)C[C@H]2N(C)C1 [LSD, lysergic acid diethylamide]	0.167 mg total fluid consumed/mg of body weight
CCN(CC)C(=O)[C@@H]1C=C2c3cccc4[nH]c(Br)c(c34)C[C@H]2N(C)C1 [BOL-148, 2-bromo-lysergic acid diethylamide]	0.086 mg total fluid consumed/mg of body weight
